Measurements as given in article doi:10.1101/2024.02.14.580338.
Residue numbers refer to the chain shown, from its start. Names and notes keep the numbering of the source. These are yes or no findings as the source states them, for the method shown. Binding seen in cells or lysates may run through a third protein. Some entries that bind do so weakly or less than the wild type.

By UniProt entry, the sequences of proteins in these tests, tags left out.
UniProt P70168: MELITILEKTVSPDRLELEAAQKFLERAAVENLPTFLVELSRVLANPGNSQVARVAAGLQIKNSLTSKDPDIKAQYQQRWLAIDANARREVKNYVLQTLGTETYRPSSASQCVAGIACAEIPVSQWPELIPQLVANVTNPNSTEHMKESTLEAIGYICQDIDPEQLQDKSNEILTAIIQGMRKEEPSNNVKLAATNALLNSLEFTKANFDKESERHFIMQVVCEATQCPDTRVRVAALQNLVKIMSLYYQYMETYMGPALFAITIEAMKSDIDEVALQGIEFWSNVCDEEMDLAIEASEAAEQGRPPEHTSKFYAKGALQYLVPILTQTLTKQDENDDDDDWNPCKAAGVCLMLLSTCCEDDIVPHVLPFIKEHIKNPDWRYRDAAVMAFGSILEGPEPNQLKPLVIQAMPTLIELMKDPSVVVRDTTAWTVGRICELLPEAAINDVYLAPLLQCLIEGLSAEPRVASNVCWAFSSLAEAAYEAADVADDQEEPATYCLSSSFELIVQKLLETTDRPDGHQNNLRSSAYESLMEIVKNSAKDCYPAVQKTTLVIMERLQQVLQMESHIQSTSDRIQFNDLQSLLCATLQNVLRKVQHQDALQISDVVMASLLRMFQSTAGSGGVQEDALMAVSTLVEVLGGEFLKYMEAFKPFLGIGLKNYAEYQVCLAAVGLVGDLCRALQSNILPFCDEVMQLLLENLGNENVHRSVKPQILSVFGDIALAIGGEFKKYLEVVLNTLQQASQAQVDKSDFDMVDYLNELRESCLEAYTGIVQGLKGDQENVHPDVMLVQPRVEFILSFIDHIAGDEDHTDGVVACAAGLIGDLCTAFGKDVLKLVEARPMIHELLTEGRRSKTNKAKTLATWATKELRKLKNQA

B1: NEMF R86S (protein, UniProt Q8CCP0 1-1064)
chain: MKSRFSTVDLRAVLAELNASLLGMRVNNVYDVDNKTYLIRLQKPDFKATLLLESGIRIHTTEFEWPKNMMPSSFAMKCRKHLKSRSLVSAKQLGVDRIVDFQFGSDEAAYHLIIELYDRGNIVLTDYEYLILNILRFRTDEADDVKFAVRERYPIDHARAAEPLLTLERLTEVIAAAPKGEVLKRVLNPLLPYGPALIEHCLIESGFSGNAKVDEKLESKDIEKILVCVQRAEDYLRKTSNFNGKGYIIQKREAKPSLDADKPAEDILTYEEFHPFLFSQHLQCPYIEFESFDKAVDEFYSKIEGQKIDLKALQQEKQALKKLDNVRKDHENRLEALQQAQEIDKLKGELIEMNLQIVDRAIQVVRSALANQIDWTEIGVIVKEAQAQGDPVACAIKELKLQTNHVTMLLRNPYLLSEEEDGDGDASIENSDAEAPKGKKKKQKNKQLQKPQKNKPLLVDVDLSLSAYANAKKYYDHKRYAAKKTQRTVEAAEKAFKSAEKKTKQTLKEVQTVTSIQKARKVYWFEKFLWFISSENYLIIGGRDQQQNEIIVKRYLTPGDIYVHADLHGATSCVIKNPTGEPIPPRTLTEAGTMALCYSAAWDARVITSAWWVYHHQVSKTAPTGEYLTTGSFMIRGKKNFLPPSYLMMGFSFLFKVDESCVWRHRGERKVRVQDEDMETLTSCTSELMAEEMEQLEGGDSSEEETEELHGMPGDVELMTQVDQEDIAVHSGRDELSSEDGEAKAVTKDQEPIGEMKEEEEDTFEYPDTTIDLSHLQSQRPLQKLAPREESLNSNDSKSQGRRHLSAKERREMKKKKLPCESGDLEVIEEKDKERESAVHTEAYQNTSKNVAAGQPMKRGQKSKMKKMKEKYKDQDDEDRELIMKLLASAGSNKEEKGKKGKKGKPKDEPVKKPPQKPRGGQRVLDVVKEPPSLQVLAHDLQDLAVDDPHDDKEEHDLDQQGNEENLFDSLTGQPHPEDVLMFAIPICAPYTIMTNYKYKVKLTPGVQKKGKAAKTALNSFMHSKEATAREKDLFRSVKDTDLSRNIPGKVKVSAPNLLHVKRK
B2: Nuclear Export Mediator Factor (NEMF), wild type (protein, UniProt Q8CCP0 1-1064)
chain: B1 chain with S86R

Molecular target: Importin-β (mouse (endogenous in MEFs)) (UniProt P70168)
Assay: proximity ligation

Row | Binder | binding
1 | B1 | binds
2 | B2 | binds
